For some assays here: For expression read-outs the peptide stands for its source gene, whose mRNA was measured; the gene is not named for every peptide.
Tests used:
Parameters in all cases: species or system human
[1] = test system: source genes of selected peptides; assay: Target coverage of source genes in tumor entities based on TCGA Research Network data; conditions: over-expressed = more than 2-fold above the highest 75% percentile of normal organs; for Target coverage, over-expression category of source gene, BLCA (N = 408): Bladder urothelial carcinoma; for Target coverage, over-expression category of source gene, CESC (N = 307): Cervical squamous cell carcinoma and endocervical adenocarcinoma; for Target coverage, over-expression category of source gene, HNSC (N = 521): Head and neck squamous cell carcinoma; for Target coverage, over-expression category of source gene, DLBC (N = 48): Lymphoid neoplasm diffuse large B-cell lymphoma; for Target coverage, over-expression category of source gene, MESO (N = 87): Mesothelioma
[2] = test system: HLA-A*24 molecules of primary tumors; assay: Identification and relative LC-MS quantitation of HLA-A*24 tumor-associated peptides presented on tissue samples (XPRESIDENT presentation profiles); conditions: Table 9A: selected HLA-A*24-binding tumor-associated peptides; cancer entities on which the peptide was found presented
[3] = test system: source genes of selected peptides; assay: Expression profiling of source genes by in-house RNAseq, tumor vs normal tissues (target coverage); conditions: for Target coverage, over-expression of source gene, AML: AML (N = 7); for Target coverage, over-expression of source gene, AML / Target coverage, over-expression of source gene, BRCA / Target coverage, over-expression of source gene, CLL / Target coverage, over-expression of source gene, CRC / Target coverage, over-expression of source gene, GB / Target coverage, over-expression of source gene, HCC / Target coverage, over-expression of source gene, OC / Target coverage, over-expression of source gene, OSCAR / Target coverage, over-expression of source gene, PC / Target coverage, over-expression of source gene, RCC / Target coverage, over-expression of source gene, SCLC / Target coverage, over-expression of source gene, pNSCLC: share of tumors with more than 1.5-fold higher expression than highest relevant normal tissue, in-house RNASeq; for Target coverage, over-expression of source gene, BRCA: BRCA (N = 10); for Target coverage, over-expression of source gene, CLL: CLL (N = 10); for Target coverage, over-expression of source gene, CRC: CRC (N = 20); for Target coverage, over-expression of source gene, GB: GB (N = 24); for Target coverage, over-expression of source gene, HCC: HCC (N = 15); for Target coverage, over-expression of source gene, OC: OC (N = 12); for Target coverage, over-expression of source gene, OSCAR: OSCAR (N = 11); for Target coverage, over-expression of source gene, PC: PC (N = 26); for Target coverage, over-expression of source gene, RCC: RCC (N = 10); for Target coverage, over-expression of source gene, SCLC: SCLC (N = 10); for Target coverage for source genes of selected peptides, GBC_CCC (N = 10): gallbladder adenocarcinoma and cholangiocarcinoma; for Target coverage for source genes of selected peptides, GBC_CCC (N = 10) / Target coverage for source genes of selected peptides, GC (N = 11) / Target coverage for source genes of selected peptides, HNSCC (N = 10) / Target coverage for source genes of selected peptides, MEL (N = 10) / Target coverage for source genes of selected peptides, NHL (N = 10) / Target coverage for source genes of selected peptides, PCA (n = 10) / Target coverage for source genes of selected peptides, UBC (N = 10) / Target coverage for source genes of selected peptides, UTC (N = 10): share of tumors with more than 1.5-fold higher expression than the highest-expressing relevant normal tissue, in-house RNAseq; for Target coverage for source genes of selected peptides, GC (N = 11): gastric cancer; for Target coverage for source genes of selected peptides, HNSCC (N = 10): head and neck small cell carcinoma; for Target coverage for source genes of selected peptides, MEL (N = 10): melanoma; for Target coverage for source genes of selected peptides, NHL (N = 10): non-Hodgkin lymphoma; for Target coverage, over-expression of source gene, pNSCLC: pNSCLC (N = 11); for Target coverage for source genes of selected peptides, PCA (n = 10): prostate cancer and benign prostate hyperplasia; for Target coverage for source genes of selected peptides, UBC (N = 10): urinary bladder cancer; for Target coverage for source genes of selected peptides, UTC (N = 10): uterine cancer

Row | Substance | Target coverage, over-expression category of source gene, BLCA (N = 408) [1] | Target coverage, over-expression category of source gene, CESC (N = 307) [1] | Target coverage, over-expression category of source gene, HNSC (N = 521) [1] | ENTITIES [2] | Target coverage, over-expression of source gene, AML [3] | Target coverage, over-expression of source gene, BRCA [3] | Target coverage, over-expression of source gene, CLL [3] | Target coverage, over-expression of source gene, CRC [3] | Target coverage, over-expression of source gene, GB [3] | Target coverage, over-expression of source gene, HCC [3] | Target coverage, over-expression of source gene, OC [3] | Target coverage, over-expression of source gene, OSCAR [3] | Target coverage, over-expression of source gene, PC [3] | Target coverage, over-expression of source gene, RCC [3] | Target coverage, over-expression of source gene, SCLC [3] | Target coverage for source genes of selected peptides, GBC_CCC (N = 10) [3] | Target coverage for source genes of selected peptides, GC (N = 11) [3] | Target coverage for source genes of selected peptides, HNSCC (N = 10) [3] | Target coverage for source genes of selected peptides, MEL (N = 10) [3] | Target coverage for source genes of selected peptides, NHL (N = 10) [3] | further results
1 | 345: peptide found in BUB1 (gene looked up) (EYNSDLHQFF; listed as Homo sapiens) [compound 345] | B (>=20% of tumors above the cutoff, but <50%) | B (>=20% of tumors above the cutoff, but <50%) | B (>=20% of tumors above the cutoff, but <50%) | GB, NSCLC | I (<19% over-expression = I) | I (<19% over-expression = I) | I (<19% over-expression = I) | I (<19% over-expression = I) | I (<19% over-expression = I) | I (<19% over-expression = I) | I (<19% over-expression = I) | I (<19% over-expression = I) | I (<19% over-expression = I) | I (<19% over-expression = I) | II (20-49% = II) | I (<19% over-expression = I) | I (<19% over-expression = I) | I (<19% over-expression = I) | I (<19% over-expression = I) | II (20-49% = II) | Target coverage, over-expression category of source gene, DLBC (N = 48) [1]: A (>=50% of tumors above the cutoff); Target coverage, over-expression category of source gene, MESO (N = 87) [1]: C (>=5% of tumors above the cutoff, but <20%); Target coverage, over-expression of source gene, pNSCLC [3]: I (<19% over-expression = I); Target coverage for source genes of selected peptides, PCA (n = 10) [3]: I (<19% over-expression = I); Target coverage for source genes of selected peptides, UBC (N = 10) [3]: I (<19% over-expression = I); Target coverage for source genes of selected peptides, UTC (N = 10) [3]: I (<19% over-expression = I)
2 | 348: peptide found in FANCD2 (gene looked up) (IYLEHTESI; listed as Homo sapiens) [compound 348] | B (>=20% of tumors above the cutoff, but <50%) | A (>=50% of tumors above the cutoff) | C (>=5% of tumors above the cutoff, but <20%) | GC, HCC, NSCLC | I (<19% over-expression = I) | I (<19% over-expression = I) | II (20-49% = II) | I (<19% over-expression = I) | I (<19% over-expression = I) | I (<19% over-expression = I) | I (<19% over-expression = I) | I (<19% over-expression = I) | I (<19% over-expression = I) | I (<19% over-expression = I) | I (<19% over-expression = I) | I (<19% over-expression = I) | I (<19% over-expression = I) | I (<19% over-expression = I) | I (<19% over-expression = I) | I (<19% over-expression = I) | Target coverage, over-expression category of source gene, DLBC (N = 48) [1]: A (>=50% of tumors above the cutoff); Target coverage, over-expression category of source gene, MESO (N = 87) [1]: C (>=5% of tumors above the cutoff, but <20%); Target coverage, over-expression of source gene, pNSCLC [3]: I (<19% over-expression = I); Target coverage for source genes of selected peptides, PCA (n = 10) [3]: I (<19% over-expression = I); Target coverage for source genes of selected peptides, UBC (N = 10) [3]: I (<19% over-expression = I); Target coverage for source genes of selected peptides, UTC (N = 10) [3]: I (<19% over-expression = I)
3 | 352: peptide found in ITGA2 (gene looked up) (QYGGDLTNTF; listed as Homo sapiens) [compound 352] | C (>=5% of tumors above the cutoff, but <20%) | C (>=5% of tumors above the cutoff, but <20%) | C (>=5% of tumors above the cutoff, but <20%) | NSCLC, GB | I (<19% over-expression = I) | I (<19% over-expression = I) | I (<19% over-expression = I) | I (<19% over-expression = I) | I (<19% over-expression = I) | I (<19% over-expression = I) | I (<19% over-expression = I) | I (<19% over-expression = I) | II (20-49% = II) | I (<19% over-expression = I) | I (<19% over-expression = I) | II (20-49% = II) | I (<19% over-expression = I) | I (<19% over-expression = I) | I (<19% over-expression = I) | I (<19% over-expression = I) | Target coverage, over-expression category of source gene, CHOL (N = 36) ([1]; Cholangiocarcinoma): C (>=5% of tumors above the cutoff, but <20%); Target coverage, over-expression of source gene, pNSCLC [3]: II (20-49% = II); Target coverage for source genes of selected peptides, PCA (n = 10) [3]: I (<19% over-expression = I); Target coverage for source genes of selected peptides, UBC (N = 10) [3]: II (20-49% = II); Target coverage for source genes of selected peptides, UTC (N = 10) [3]: I (<19% over-expression = I)

— patent publication US10159726B2, “Peptides, combination of peptides and scaffolds for use in immunotherapeutic treatment of various cancers” (Immatics Biotechnologies GmbH, priority 2015, dated 2018)
